Measured values from publication PMC3108997.
No constants are given. Whether binding was seen depends on the method and setting. In cells and extracts the contact can be indirect. Some results given as binding are weak or reduced against the parent protein; the word gives no strength.

Sequences of proteins named here, by UniProt entry; tags and fusion partners are left off.
UniProt P09067: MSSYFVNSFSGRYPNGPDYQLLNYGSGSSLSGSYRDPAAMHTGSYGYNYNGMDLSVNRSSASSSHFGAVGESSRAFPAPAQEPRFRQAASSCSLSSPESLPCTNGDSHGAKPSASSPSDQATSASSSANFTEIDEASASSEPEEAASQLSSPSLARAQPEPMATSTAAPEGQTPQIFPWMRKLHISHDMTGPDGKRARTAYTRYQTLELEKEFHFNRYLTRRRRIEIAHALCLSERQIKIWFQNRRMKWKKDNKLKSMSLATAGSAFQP

Target: HOXB5 (human) (UniProt P09067)
Assay: co-IP; nuclear extract of transfected SK-N-SH cells, pre-cleared with Protein G-Agarose; IP with mouse anti-HOXB5 (133C3a) or non-immunized mouse IgG control, 4°C, 3 hours; blot with anti-NKX2-1 (F-12)

binding: binds
B1: NKX2-1 (protein, UniProt P43699 1-371)
chain: MSMSPKHTTPFSVSDILSPLEESYKKVGMEGGGLGAPLAAYRQGQAAPPTAAMQQHAVGHHGAVTAAYHMTAAGVPQLSHSAVGGYCNGNLGNMSELPPYQDTMRNSASGPGWYGANPDPRFPAISRFMGPASGMNMSGMGGLGSLGDVSKNMAPLPSAPRRKRRVLFSQAQVYELERRFKQQKYLSAPEREHLASMIHLTPTQVKIWFQNHRYKMKRQAKDKAAQQQLQQDSGGGGGGGGTGCPQQQQAQQQSPRRVAVPVLVKDGKPCQAGAPAPGAASLQGHAQQQAQHQAQAAQAAAAAISVGSGGAGLGAHPGHQPGSAGQSPDLAHHAASPAALQGQVSSLSHLNSSGSDYGTMSCSTLLYGRTW
